This note sets out measurements from PubChem BioAssay AID2685 (National Center for Advancing Translational Sciences (NCATS), 2010).

This assay is described as follows: qHTS Assay for Lipid Storage Modulators in Drosophila S3 Cells.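 For cell number change: cells counted by Cell Tracker Red CMTPX staining in the red channel.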 The following applies: BODIPY lipid droplet fluorescence, 18-24 h; for cell number change: measured here: cell count max response, cells fed with added oleic acid. A digest of the protocol: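 Drosophila S3 cells got compounds at several concentrations plus oleic acid (400 uM solution). Laser-scanning cytometry with 488 nm excitation read lipid droplets at 500-530 nm and cells at 575-640 nm. Percent activity was relative to 20 uM Triacsin C.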
On the technique in general: qHTS replaces the single test concentration by a dilution series.

Where [1] appears, read: measured here: lipid fluorescence (Fed channel) AC50, cells fed with added oleic acid.
The mark [2] stands for this setting: measured here: cell number channel AC50, cells fed with added oleic acid.

Some of the results follow. Further columns of the screen follow, without active or inactive calls. Most of these compounds were active or inconclusive in the main read-out, so they are no random draw. Potencies come from curve fits of mixed quality, noted in brackets.

For orientation: AC50 means the concentration at which the activity in the assay is half-maximal. A higher AC50 goes with weaker potency. As to `COc1cccc(-c2nnc(SCCC(=O)O)n2C)c1`, the cell number change was 0.397%. Also, the AC50 under setting [1] was 8.2 µM [falling, partial curve, poor fit].
Consider `C=CCNC(=O)CN1CCC(NC(=O)c2ccco2)CC1`, for which the cell number change amounted to 17.7%. Moreover, under setting [1], the AC50 was 0.206 µM [rising, full curve, poor fit].
In the case of `Cc1cccc(CN2CCN(CC(=O)NCCCN3CCCC3=O)C2=O)c1`, the cell number change was -11%. The AC50 under setting [1] was 29.1 µM [falling, single point].
For the molecule `CCS(=O)(=O)c1c([N+](=O)[O-])ncn1C`, the cell number change is -59.1%. In addition, under setting [2], the AC50 was 29.1 µM [falling, single point]. For the same molecule, the AC50 under setting [1] was 23.1 µM [falling, partial curve].
As to `COC(=O)c1sccc1NC(=O)c1ccc(C(C)C)cc1`, the cell number change was -19%. Besides, under setting [1], the AC50 is 2.59 µM [rising, single point].
As for `COCc1cc(C)nc(NCCc2ccccc2)c1C#N`, the cell number change was 54.8%. Moreover, the AC50 under setting [2] was 1.46 µM [rising, partial curve, poor fit]. In addition, under setting [1], the AC50 was 16.4 µM [falling, partial curve].
Regarding `CC(C)CCNC(=O)C(NS(=O)(=O)c1ccc2c(c1)c(=O)n(C)c(=O)n2C)c1ccccc1` (stereo unspecified), the cell number change is 54.3%. Under setting [2], the concentration at half-maximal activity (AC50) was 29.1 µM [rising, single point]. Further, the half-maximal activity concentration (AC50) under setting [1] is 2.06 µM [rising, partial curve].
For the molecule `O=C(NC1CCCCC1)c1cc(C2CC2)on1`, the cell number change is 31.4%. Besides, under setting [2], the half-maximal activity concentration (AC50) was 2.91 µM [rising, partial curve]. Further, the AC50 under setting [1] was 10.3 µM [rising, partial curve, poor fit].
On to `COc1ccccc1N1CCN(C(=O)Cc2cccs2)CC1`, for which the cell number change is 25.2%.
For the molecule `O=C(Cc1ccccc1)NC1CCN(Cc2ccccc2)CC1`, the cell number change is -30.6%. The AC50 under setting [2] was 2.06 µM [rising, partial curve]. Further, the AC50 under setting [1] is 29.1 µM [falling, single point].
With `COc1ccc(COC(=O)C2=C(C)NC(=O)NC2c2ccccc2)cc1` (stereo unspecified), the cell number change was -19.4%. Further, the AC50 under setting [2] was 3.66 µM [falling, full curve, poor fit].
Regarding `CC(C)Oc1ccc(S(=O)(=O)N2CCOCC2)cc1NC(=O)C1CCC1`, the cell number change amounted to 41.3%. Also, the AC50 under setting [2] was 0.651 µM [rising, full curve]. Under setting [1], the AC50 was 4.11 µM [rising, partial curve, poor fit].
On to `CC(C)CN(C(=O)c1ccc([N+](=O)[O-])s1)c1c(N)n(Cc2ccccc2)c(=O)[nH]c1=O`, for which the cell number change is -30.4%. In addition, under setting [2], the AC50 was 6.51 µM [falling, full curve, poor fit].
For the molecule `CCOC(=O)N1CCC(N(CCOC)C(=O)Nc2ccc(CC)cc2)CC1`, the cell number change is -11.8%. Further, under setting [1], the AC50 was 18.4 µM [rising, single point].
Take `CC1(C(=O)O)CCC(C(=O)NC2CCCCCC2)C1(C)C` (stereo unspecified): the cell number change is 2.54%. In addition, under setting [1], the AC50 was 0.058 µM [falling, full curve].
Take `NC(=O)CN1C(=O)NC2(CCCc3sccc32)C1=O` (stereo unspecified): the cell number change was 40.8%. Besides, under setting [2], the AC50 was 10.3 µM [rising, partial curve].
For `CC(C)[C@@H](C(=O)O)N(Cc1cccc(CN([C@H](C(=O)O)C(C)C)S(C)(=O)=O)c1)S(C)(=O)=O`, the cell number change worked out at 14.2%. For the same molecule, the AC50 under setting [1] was 29.1 µM [rising, single point].
As for `N#CC(C(=O)NCCc1ccccc1)c1nc2ccccc2nc1N1CCOCC1` (stereo unspecified), the AC50 by setting is: under setting [2], 2.59 µM [rising, partial curve]; under setting [1], 1.84 µM [rising, partial curve].
Consider `CCn1c(=O)cc(C(=O)OC)sc1=Nc1ccc(F)c(F)c1`, for which the cell number change is 17%. Moreover, the AC50 under setting [1] is 1.64 µM [rising, single point].
For `Nc1c(C(=O)Nc2ccc(Cl)c(Cl)c2)sc2nc(-c3cccnc3)ccc12`, the cell number change is 7.99%. Further, under setting [1], the AC50 was 0.103 µM [rising, full curve, poor fit].
In the case of `O=C(NCCN1CCOCC1)c1ccc(F)cc1`, the cell number change is -47.9%. Further, the AC50 under setting [2] is 0.0651 µM [falling, full curve, poor fit]. Further, under setting [1], the AC50 is 16.4 µM [falling, partial curve].
Turning to `O=C(O)CCC(=O)NCc1cn(-c2ccccc2)nc1-c1cccc(Br)c1`, the AC50 runs as follows: under setting [2], 2.91 µM [rising, single point]; under setting [1], 8.2 µM [rising, partial curve, poor fit].
In the case of `CCN(CC)CCCN(C(=O)c1ccccc1F)c1nc(-c2ccc(OC)cc2)cs1`, the cell number change was -9.98%.
On to `Cc1cccc(CC(=O)NCCn2c(C)cc3ccccc32)c1`, for which the cell number change worked out at 56.7%. For the same molecule, the AC50 under setting [2] is 20.6 µM [rising, single point].
Turning to `CCc1ccc(OCC(=O)O/N=C(\N)c2ccncc2)c(Br)c1`, the cell number change turned out to be 13.6%. Further, the concentration at half-maximal activity (AC50) under setting [1] was 3.66 µM [rising, single point].
Regarding `CCCCCCc1nc2ccccc2c(=O)n1NC(=O)c1c(O)c2cccc3c2n(c1=O)CCC3`, the cell number change turned out to be 19.4%. In addition, the AC50 under setting [1] is 18.4 µM [rising, partial curve].
With `CCOc1ccc(CCNC(=O)COC(=O)c2ccc3c(c2)OCCO3)cc1OCC`, the cell number change is -48.5%. Under setting [2], the AC50 is 4.11 µM [falling, partial curve]. Besides, the AC50 under setting [1] was 5.17 µM [falling, partial curve].
For `O=C(NCc1ccccn1)c1cccc(S(=O)(=O)Nc2ccc(SC(F)F)cc2)c1`, the cell number change was 25%.
As for `COC(=O)c1cc2oc(C)cc2n1CC(=O)N(C)c1ccccc1`, the cell number change is -15.8%. In addition, the AC50 under setting [1] was 5.8 µM [falling, full curve, poor fit].
On to `CN(c1ccccc1)S(=O)(=O)c1ccc2[nH]c(=O)oc2c1`, for which the cell number change is -18.4%.
Turning to `CC(OC(=O)c1cc(=O)c2ccccc2o1)C(=O)Nc1ccc(N(C)C)cc1` (stereo unspecified), the cell number change came out at 1.88%. Also, the half-maximal activity concentration (AC50) under setting [1] was 2.91 µM [rising, single point].
As to `Cc1ccc(Cl)cc1NC(=O)NCCN1CCCCC1`, the cell number change was 34.1%. The AC50 under setting [2] was 13 µM [rising, partial curve, poor fit].
Consider `O=C(Nc1nnc(-c2ccccc2Cl)o1)c1ccco1`, for which the AC50 is, setting by setting: under setting [2], 6.51 µM [falling, single point]; under setting [1], 6.51 µM [falling, single point].
In the case of `O=C1NC2C(NC(=O)N2C2CCCCC2)N1C1CCCCC1` (stereo unspecified), the cell number change was -39.9%. In addition, under setting [2], the AC50 was 0.517 µM [falling, full curve]. Besides, the AC50 under setting [1] was 0.411 µM [falling, full curve].
`O=C(NCc1ccccc1Cl)c1ccc(CS(=O)(=O)c2ccccc2)o1`: the cell number change was 20.2%. The AC50 under setting [1] was 6.51 µM [rising, single point].
Consider `O=C(NCCN1CCOCC1)Nc1ccc(F)cc1`, for which the cell number change is 35.4%. The AC50 under setting [2] was 2.59 µM [rising, full curve].
As for `COc1ccc(F)cc1CN1CCN(c2ncnc3scc(-c4ccccc4)c23)CC1`, the cell number change was 30.5%. Further, the AC50 under setting [2] is 0.731 µM [rising, full curve, poor fit]. Besides, under setting [1], the AC50 was 2.91 µM [rising, full curve].
Consider `CN(C(=O)CSc1cc(C(=O)c2nccn2C)c2ccccc2n1)c1ccccc1`, for which the cell number change is -18.7%. For the same molecule, the AC50 under setting [1] was 32.6 µM [falling, single point].
Consider `CSCCC(NC(=O)c1ccccc1)C(=O)N1CCN(Cc2ccc(Cl)cc2)CC1` (stereo unspecified), for which the cell number change was -4.13%. In addition, under setting [1], the AC50 was 5.8 µM [falling, single point].
`COc1ccc(C2CC(c3ccc(Br)cc3)=NN2C(=S)Nc2ccccc2)cc1` (stereo unspecified): the cell number change turned out to be 35%. In addition, under setting [2], the AC50 is 4.11 µM [rising, full curve, poor fit].
For `CC1CCCN(C(=S)Nc2ccc(S(=O)(=O)N3CCCCC3)cc2)C1` (stereo unspecified), the cell number change amounted to 14.3%. Further, under setting [2], the AC50 was 0.116 µM [falling, full curve]. Further, the AC50 under setting [1] was 0.116 µM [falling, full curve].
With `OCC1(Cc2ccccc2)CCN(Cc2cccc(F)c2F)CC1`, the cell number change was -13.4%. Moreover, under setting [1], the AC50 is 0.517 µM [falling, full curve, poor fit].
Consider `CC1(C)C(c2cccs2)=[N+]([O-])C2(CCCCC/C2=N\NC(N)=S)N1O` (stereo unspecified), for which the cell number change is -0.447%. Further, under setting [1], the AC50 was 5.17 µM [rising, partial curve].
For `O=Cc1c(Sc2ccccc2)nc2ccccn2c1=O`, the cell number change was 136%. The AC50 under setting [2] is 20.6 µM [rising, partial curve].
Regarding `CC(=O)Nc1ccc(S(=O)(=O)N(C)CC(=O)NCCC2=CCCCC2)cc1`, the cell number change was -14.1%.
With `CCn1nc(C)c(/C=N/NC(=S)Nc2ccc(Cl)cc2Cl)c1C`, the cell number change amounted to 43.6%. Moreover, the AC50 under setting [2] was 1.84 µM [rising, full curve]. Further, under setting [1], the AC50 was 0.259 µM [rising, full curve, poor fit].
As to `N#Cc1c(N2CCCCC2)nc(N)c2c(N)nc3c(c12)CC(CCl)O3` (stereo unspecified), the AC50 reads like this: under setting [2], 0.58 µM [rising, single point]; under setting [1], 6.51 µM [rising, single point].
On to `CC(=O)Nc1c2c(nn1-c1ccccc1C)CS(=O)(=O)C2`, for which the cell number change turned out to be 39.4%. Also, the AC50 under setting [2] is 29.1 µM [rising, single point].
Take `CN(CC(=O)NC1CCN(Cc2ccccc2)CC1)S(=O)(=O)c1ccc(Br)s1`: the cell number change turned out to be 23.4%. Under setting [1], the AC50 was 29.1 µM [falling, single point].
Consider `COc1ccc(-n2c(=S)[nH]c3c(oc4ccccc43)c2=O)cc1`, for which the cell number change stood at 40.4%. For the same molecule, under setting [2], the half-maximal activity concentration (AC50) was 25.9 µM [rising, single point]. Moreover, the AC50 under setting [1] was 11.6 µM [rising, partial curve, poor fit].
`Cc1ccc(O)c(/C=N/NC(=O)c2[nH]ncc2Br)c1`: the cell number change worked out at 13.5%.
As to `Cc1cc(F)ccc1S(=O)(=O)Nc1ncnc2sccc12`, the cell number change was -9.49%. The AC50 under setting [2] is 0.00461 µM [rising, full curve, poor fit].
With `CC(=O)c1ccc(C(=O)Nc2sc3c(c2C(N)=O)CCN(Cc2ccccc2)C3)cc1`, the cell number change was determined as 97.4%. Under setting [2], the concentration at half-maximal activity (AC50) was 29.1 µM [rising, partial curve, poor fit]. In addition, the AC50 under setting [1] is 8.2 µM [falling, partial curve].
For `O=C(CNS(=O)(=O)c1c(F)cc(F)cc1Br)OCC(=O)N1CCCC1=O`, the cell number change is -4.81%. In addition, under setting [1], the AC50 was 29.1 µM [rising, single point].
As for `CCCCC1(C(=O)OCC)CC(CN2CCOCC2)OC1=O` (stereo unspecified), the cell number change is -0.431%. For the same molecule, the AC50 under setting [1] was 5.17 µM [falling, partial curve].
For `Cc1nc(Cl)c2oc3ccccc3c2n1`, the cell number change is -85.7%. The AC50 under setting [2] was 4.61 µM [falling, full curve]. Also, the AC50 under setting [1] is 3.26 µM [falling, full curve].
